Test results taken from PubChem BioAssay AID342 (DTP/NCI, 2004).
The list does not hold the whole screen: it is rich in T/C values a quarter to a half above the control, in often repeated tests (any T/C) and in doses without a T/C. Further doses and runs are listed elsewhere. T/C gives the treated animals as a percentage of the vehicle group. Schedule codes are those of the source, read here as Q, the interval in days (D) or hours (H), X, the number of doses. Some entries hold several experiments; their values stand side by side, smallest first. Some schedules carry Z or #; the key to these is not given. Some T/C values carry the count of animals alive at the toxicity check (mostly the fifth day); where none is given, no animal had died by that day. Some entries give survivors of the animals treated and no T/C: the source files T/C as zero there, which appears to mark a toxic dose or a test without result, not a measured value. Survivors were counted at the toxicity check, usually on the fifth day, unless a day is given; later deaths do not show.

System: Swiss mice, Sarcoma 180 sc, mean tumor weight T/C
Assay: NCI In Vivo Anticancer Drug Screen. Data for tumor model Sarcoma 180 (subcutaneous) in Swiss mice
Conditions: T/C endpoint: mean tumor weight, higher T/C = larger tumour; for T/C: evaluated on day 8
Procedure: The antitumor activity of compounds was measured in mice bearing transplantable tumors. Survival or tumor size were measured and the results are expressed as the measurement made in the treated group (T) divided by the measurement made in the vehicle treated control group (C). The tumor model used in this assay is Sarcoma 180 (subcutaneous) in Swiss mice

[1] = dose: 8.8 mg/kg/injection, schedule: Q#A X014 (sc), vehicle: steroid suspending solution
[2] = dose: 2.0 mg/kg/injection, schedule: Q01DX007 (ip), vehicle: carboxymethylcellulose (CMC)
[3] = dose: 100.0 mg/kg/injection, schedule: Q01DX007 (ip), vehicle: carboxymethylcellulose (CMC)
[4] = dose: 187.5 mg/kg/injection, schedule: Q#A X014 (ip), vehicle: methylcellulose (MC)

`CC1(c2ccccc2)O[C@@H]2C[C@H]3[C@@H]4CCC5=CC(=O)C=C[C@]5(C)[C@@]4(F)[C@@H](O)C[C@]3(C)[C@]2(C(=O)CO)O1` (some centres undefined) was tested, and the survivor count (dose: 5.85 mg/kg/injection, schedule: Q#A X014 (sc), vehicle: steroid suspending solution) was 4 of 7, the T/C [1] was 18 and 79 % of control and the survivor count [1] was 3 of 6 and 4 of 7. The survivor count (dose: 19.8 mg/kg/injection, schedule: Q#A X014 (sc), vehicle: steroid suspending solution) was 2 of 7.
`COc1ccc2c3c([nH]c2c1)[C@H]1C[C@H]2[C@H](C[C@@H](O)[C@H](OC)[C@H]2CO)CN1CC3` was tested, and the T/C (dose: 4.0 mg/kg/injection, schedule: Q01DX007 (ip), vehicle: saline) was 138 % of control.
With `C[C@]12CC[C@H](OC3OC(CO)C(O)C(O)C3O)C[C@H]1CC[C@@H]1[C@@H]2CC[C@]2(C)[C@@H](C3=CCOC3=O)CC[C@]12O` (some centres undefined) the survivor count (dose: 1.0 mg/kg/injection, schedule: Q01DX007 (ip), vehicle: carboxymethylcellulose (CMC)) was 3 of 6, the survivor count [2] was 0 of 6 and the survivor count (dose: 2.0 mg/kg/injection, schedule: Q01DX007 (ip), vehicle: saline) was 3 of 6. The survivor count (dose: 2.0 mg/kg/injection, schedule: Q01DX007 (ip), vehicle: water) was 3 of 6, the survivor count (dose: 3.0 mg/kg/injection, schedule: Q03DX003 (ip), vehicle: carboxymethylcellulose (CMC)) was 3 of 6 and the survivor count (dose: 3.8 mg/kg/injection, schedule: Q01DX007 (ip), vehicle: saline) was 2 of 7. For the same compound, the survivor count (dose: 6.0 mg/kg/injection, schedule: Q03DX003 (ip), vehicle: carboxymethylcellulose (CMC)) was 0 of 6 and 1 of 6, the T/C (dose: 6.8 mg/kg/injection, schedule: Q01DX007 (oral), vehicle: carboxymethylcellulose (CMC)) was 147 % of control [4 of 6 alive] and the T/C (dose: 24.0 mg/kg/injection, schedule: Q01DX007 (oral), vehicle: carboxymethylcellulose (CMC)) was 149 % of control. For the same compound, the survivor count (dose: 2000.0 micrograms/kg/injection, schedule: Q01DX007 (ip), vehicle: carboxymethylcellulose (CMC)) was 0 of 6.
`NC(Cc1cccs1)C(=O)O` (centres undefined) was tested, and the T/C (dose: 500.0 mg/kg/injection, schedule: Q01DX007 (ip), vehicle: carboxymethylcellulose (CMC)) was 132 % of control.
For `CC(C)CC(C#N)C(N)=O` (centres undefined), the T/C (dose: 15.0 mg/kg/injection, schedule: Q01DX007 (ip), vehicle: methylcellulose (MC)) was 138 % of control [5 of 6 alive].
For `CCC(CC)C(O)CCCN(C)C` (centres undefined), the survivor count (dose: 800.0 mg/kg/injection, schedule: Q01DX007 (ip), vehicle: saline) was 0 of 7.
With `c1ccc2[nH]cnc2c1` the survivor count (dose: 370.0 mg/kg/injection, schedule: Q01DX007 (ip), vehicle: carboxymethylcellulose (CMC)) was 5 of 10.
For `CC(C)COC(=O)C1(N)CCCC1`, the survivor count (dose: 282.0 mg/kg/injection, schedule: Q01DX007 (ip), vehicle: saline) was 2 of 6.
In the case of `O=CC1CO1` (centres undefined), the T/C (dose: 12.5 mg/kg/injection, schedule: Q01DX007 (ip), vehicle: carboxymethylcellulose (CMC)) is reported as 141 % of control and the T/C (dose: 25.0 mg/kg/injection, schedule: Q01DX007 (ip), vehicle: carboxymethylcellulose (CMC)) is reported as 141 % of control.
`[N-]=[N+]=CC(=O)CCC(N)C(=O)O` (centres undefined) was tested, and the survivor count (dose: 50.0 mg/kg/injection, schedule: Q#A X014 (ip), vehicle: saline) was 1 of 7 and 3 of 6.
In the case of `CC(=O)Nc1ccc(/C=N/Nc2ccc([N+](=O)[O-])cn2)cc1`, the survivor count [3] is reported as 2 of 6, the survivor count (dose: 125.0 mg/kg/injection, schedule: Q#A X014 (ip), vehicle: methylcellulose (MC)) is reported as 3 of 6 and the survivor count (dose: 150.0 mg/kg/injection, schedule: Q01DX007 (ip), vehicle: carboxymethylcellulose (CMC)) is reported as 1 of 6. The survivor count [4] was 1 of 6.
With `C[C@H]1/C(=C/C(=O)OCCN(C)C)CC[C@H]2[C@H]1C(=O)C[C@H]1C(C)(C)[C@@H](O)CC[C@]21C` the survivor count (dose: 30.0 mg/kg/injection, schedule: Q01DX007 (ip), vehicle: saline) was 0 of 6, the survivor count (dose: 60.0 mg/kg/injection, schedule: Q01DX007 (ip), vehicle: saline) was 0 of 6 and the survivor count (dose: 120.0 mg/kg/injection, schedule: Q01DX007 (ip), vehicle: saline) was 0 of 6.
With `NNC(=O)c1nsnc1N` the survivor count [3] was 0 of 6.
For `CCc1c(CC(=O)O)c2cc(C)ccc2n1Cc1ccc(Cl)cc1`, the survivor count (dose: 200.0 mg/kg/injection, schedule: Q01DX007 (ip), vehicle: saline) was 0 of 6 and the survivor count (dose: 400.0 mg/kg/injection, schedule: Q01DX007 (ip), vehicle: saline) was 0 of 6.
`CCC(=O)NC` was tested, and the survivor count (dose: 1500.0 mg/kg/injection, schedule: Q01DX007 (ip), vehicle: other) was 2 of 6.
With `O=c1cccc2n1CC1CNC[C@H]2C1` the survivor count (dose: 12.5 mg/kg/injection, schedule: Q01DX007 (ip), vehicle: saline) was 0 of 6 and the survivor count (dose: 25.0 mg/kg/injection, schedule: Q01DX007 (ip), vehicle: saline) was 0 of 6.
`CC(=O)Nc1c(Cl)c(Cl)c2c(c1Cl)Cc1cc(Br)ccc1-2` was tested, and the survivor count (dose: 12.0 mg/kg/injection, schedule: Q01DX007 (ip), vehicle: carboxymethylcellulose (CMC)) was 2 of 6, the survivor count (dose: 50.0 mg/kg/injection, schedule: Q01DX007 (ip), vehicle: carboxymethylcellulose (CMC)) was 1 of 6 and the survivor count (dose: 95.0 mg/kg/injection, schedule: Q01DX007 (ip), vehicle: other) was 3 of 6.
`CCCC(=O)OCC1OC(n2cnc3c(=S)nc(N)[nH]c32)C(OC(=O)CCC)C1OC(=O)CCC` (centres undefined) was tested, and the T/C (dose: 14.0 mg/kg/injection, schedule: Q01DX007 (ip), vehicle: carboxymethylcellulose (CMC)) was 21, 33, 43, 57 % of control, the survivor count (dose: 43.0 mg/kg/injection, schedule: Q01DX007 (ip), vehicle: carboxymethylcellulose (CMC)) was 5 of 8 and the survivor count (dose: 47.0 mg/kg/injection, schedule: Q01DX007 (ip), vehicle: carboxymethylcellulose (CMC)) was 1 of 6.
`Cn1cc(NC(=O)c2cc(NC(=O)c3cc(NC=O)cn3C)cn2C)cc1C(=O)NCCC(=N)N` was tested, and the survivor count (dose: 80.0 mg/kg/injection, schedule: Q01DX007 (sc), vehicle: water) was 3 of 6 and the survivor count (dose: 100.0 mg/kg/injection, schedule: Q01DX007 (sc), vehicle: water) was 1 of 6.
With `CCOc1ccc2nc(S(N)(=O)=O)sc2c1` the survivor count (dose: 111.0 mg/kg/injection, schedule: Q#A X014 (ip), vehicle: methylcellulose (MC)) was 2 of 6, the survivor count (dose: 166.5 mg/kg/injection, schedule: Q#A X014 (ip), vehicle: methylcellulose (MC)) was 3 of 6 and the survivor count (dose: 250.0 mg/kg/injection, schedule: Q#A X014 (ip), vehicle: methylcellulose (MC)) was 1 of 6.
`CCc1nc(N)nc(N)c1-c1ccc(Cl)c(Cl)c1.O.O.[Zn]` was tested, and the survivor count (dose: 18.0 mg/kg/injection, schedule: Q01DX007 (ip), vehicle: carboxymethylcellulose (CMC)) was 3 of 6.
With `CN1CCCC1c1cccnc1` (centres undefined) the T/C [2] was 137 % of control, the survivor count (dose: 10.0 mg/kg/injection, schedule: Q01DX007 (ip), vehicle: carboxymethylcellulose (CMC)) was 0 of 6 and the survivor count (dose: 20.0 mg/kg/injection, schedule: Q01DX007 (ip), vehicle: carboxymethylcellulose (CMC)) was 0 of 6. For the same compound, the survivor count (dose: 40.0 mg/kg/injection, schedule: Q01DX007 (ip), vehicle: carboxymethylcellulose (CMC)) was 0 of 6.
For `Cc1cn(C2OC(CO)C(O)C2O)c(=O)[nH]c1=O` (centres undefined), the survivor count (dose: 15.0 mg/kg/injection, schedule: Q01DX007 (ip), vehicle: saline) was 0 of 7.
For `CC(C)(c1ccccc1)c1ccc(O)cc1`, the survivor count (dose: 300.0 mg/kg/injection, schedule: Q01DX007 (ip), vehicle: carboxymethylcellulose (CMC)) was 0 of 7.
In the case of `Clc1ccc2c(c1)C(Br)c1cc(Cl)cc(Cl)c1-2` (centres undefined), the survivor count (dose: 500.0 mg/kg/injection, schedule: Q01DX007 (ip), vehicle: saline) is reported as 1 of 6 and the survivor count (dose: 750.0 mg/kg/injection, schedule: Q01DX007 (ip), vehicle: saline) is reported as 0 of 6.
For `Cc1cc(C)c(N)c(C)c1N`, the survivor count [4] was 2 of 6 and 3 of 6.
`CO[C@H]1CC[C@@]2(C)C(=CC[C@H]3[C@@H]4C[C@H](O)[C@H](OC)[C@@]4(C)CC[C@@H]32)C1` was tested, and the T/C (dose: 1.25 mg/kg/injection, schedule: Q#A X014 (sc), vehicle: steroid suspending solution) was 131 % of control and the survivor count (dose: 250.0 mg/kg/injection, schedule: Q#A X014 (sc), vehicle: steroid suspending solution) was 3 of 6.
